In PMC8217502:
No constants are given. Whether binding was seen depends on the method and setting. Binding calls can cover weak binding; strength is not graded here.

Amino acid sequences for entries named in this document (tags omitted). A change or cut given only in a name is not applied to a line headed by its entry.
UniProt Q8IJ66: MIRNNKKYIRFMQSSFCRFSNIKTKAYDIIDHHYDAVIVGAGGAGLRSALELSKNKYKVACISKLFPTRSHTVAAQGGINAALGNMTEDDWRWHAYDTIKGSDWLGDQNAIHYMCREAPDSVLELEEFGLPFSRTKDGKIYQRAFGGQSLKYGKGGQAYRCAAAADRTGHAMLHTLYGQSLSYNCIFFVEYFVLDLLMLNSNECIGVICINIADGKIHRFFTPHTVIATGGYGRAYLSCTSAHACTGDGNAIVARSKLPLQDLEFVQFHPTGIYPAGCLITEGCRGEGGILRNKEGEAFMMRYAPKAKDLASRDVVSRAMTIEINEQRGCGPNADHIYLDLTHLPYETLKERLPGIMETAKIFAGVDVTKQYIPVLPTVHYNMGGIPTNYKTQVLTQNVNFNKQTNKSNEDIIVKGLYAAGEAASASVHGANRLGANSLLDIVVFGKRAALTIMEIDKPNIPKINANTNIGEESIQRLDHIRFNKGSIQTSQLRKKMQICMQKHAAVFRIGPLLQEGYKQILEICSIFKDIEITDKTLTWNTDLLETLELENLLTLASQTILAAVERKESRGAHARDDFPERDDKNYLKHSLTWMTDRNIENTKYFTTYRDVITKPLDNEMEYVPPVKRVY
UniProt Q8I5S5: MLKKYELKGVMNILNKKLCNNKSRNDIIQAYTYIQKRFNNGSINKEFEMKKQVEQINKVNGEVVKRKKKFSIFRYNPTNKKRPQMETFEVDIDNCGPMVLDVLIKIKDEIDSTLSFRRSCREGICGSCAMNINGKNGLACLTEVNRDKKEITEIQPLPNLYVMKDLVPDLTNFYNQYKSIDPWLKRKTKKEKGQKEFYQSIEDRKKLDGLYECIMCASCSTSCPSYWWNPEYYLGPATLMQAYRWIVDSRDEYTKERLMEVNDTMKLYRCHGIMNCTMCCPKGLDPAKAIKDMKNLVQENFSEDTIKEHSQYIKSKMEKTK

Molecular target: SDHA (P. falciparum) (UniProt Q8IJ66)
Experiment: native gel or EMSA; complexome profiling after method 3 only (nitrogen cavitation without saponin, larger amounts of parasites; samples ABS3D and GCT3D), digitonin, BN-PAGE 4-16%, stacking gel also analysed

SDHB (from UniProt Q8I5S5) was tested, and the binding was “binds”.
